# Reference: article PMC7862700
# By UniProt entry, the sequences of proteins in these tests, tags left out. Where a name states a change or a piece, a line headed by the entry shows the natural chain unless it says otherwise.
# UniProt P32519: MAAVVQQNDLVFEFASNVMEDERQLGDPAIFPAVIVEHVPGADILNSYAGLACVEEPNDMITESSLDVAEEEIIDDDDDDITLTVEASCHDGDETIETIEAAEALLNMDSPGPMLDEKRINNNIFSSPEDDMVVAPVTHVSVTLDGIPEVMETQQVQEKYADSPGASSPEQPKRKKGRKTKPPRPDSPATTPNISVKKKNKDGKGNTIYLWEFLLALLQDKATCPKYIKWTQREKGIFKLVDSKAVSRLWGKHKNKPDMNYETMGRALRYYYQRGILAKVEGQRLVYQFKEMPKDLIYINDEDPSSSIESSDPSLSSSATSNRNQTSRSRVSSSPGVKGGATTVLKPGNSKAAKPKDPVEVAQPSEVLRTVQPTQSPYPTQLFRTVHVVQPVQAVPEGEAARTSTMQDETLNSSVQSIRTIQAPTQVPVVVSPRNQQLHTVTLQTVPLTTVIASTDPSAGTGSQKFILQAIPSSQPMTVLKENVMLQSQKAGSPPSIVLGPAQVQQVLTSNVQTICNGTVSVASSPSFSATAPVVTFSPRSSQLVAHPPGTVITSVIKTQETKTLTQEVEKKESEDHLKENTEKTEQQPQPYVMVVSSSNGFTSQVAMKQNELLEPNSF
# Only a part is listed here, and it is no random draw. The list shows a part of the results. For some assays here: The source does not settle which construct or isoform was used.
# Legend:
# [1] = molecular target: ELF1 (UniProt P32519); assay: DAPPL (digital affinity profiling via proximity ligation, sequencing); conditions: 10 mM Tris-HCl pH 7.5, 50 mM NaCl, 1 mM DTT, 4% glycerol, room temperature, 30 min; GST-TFs on glutathione beads, 16-mer random dsDNA library, 0.1% …; high values mean tight binding; double strand, one strand shown; scale: fold enrichment (6-mer frequency, TF over GST control)
# [2] = molecular target: T1, ETV4 (UniProt P43268); assay: as above; conditions: 10 mM Tris-HCl pH 7.5, 50 mM NaCl, 1 mM DTT, 4% glycerol, room temperature, 30 min; GST-TFs on glutathione beads, 16-mer random dsDNA library, 0.1% …; high values mean tight binding; double strand, one strand shown; scale: fold enrichment (6-mer frequency, TF over GST control)
# T1 sequence: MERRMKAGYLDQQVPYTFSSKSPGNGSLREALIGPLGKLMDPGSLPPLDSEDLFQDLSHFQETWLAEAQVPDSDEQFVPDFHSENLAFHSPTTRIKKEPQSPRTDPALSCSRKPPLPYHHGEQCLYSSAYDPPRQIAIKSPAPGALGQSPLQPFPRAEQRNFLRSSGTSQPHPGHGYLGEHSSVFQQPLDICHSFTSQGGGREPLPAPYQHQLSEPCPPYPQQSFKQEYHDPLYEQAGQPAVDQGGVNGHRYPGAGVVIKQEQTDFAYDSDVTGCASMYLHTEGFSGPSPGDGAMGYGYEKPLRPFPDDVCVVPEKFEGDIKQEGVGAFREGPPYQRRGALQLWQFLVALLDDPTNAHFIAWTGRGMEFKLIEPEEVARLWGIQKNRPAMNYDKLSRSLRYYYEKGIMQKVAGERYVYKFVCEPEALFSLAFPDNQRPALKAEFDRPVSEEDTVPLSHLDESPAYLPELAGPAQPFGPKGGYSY
sequence,measurement,setting,value
TGTAAG,binding signal,[1],1.11
same,binding signal,[2],1.07
TAAATT,binding signal,[1],1.27
same,binding signal,[2],1.26
ATCAAA,binding signal,[1],1.07
same,binding signal,[2],1.04
CGCGCT,binding signal,[1],1.18
same,binding signal,[2],1.3
TCTACA,binding signal,[1],1.28
same,binding signal,[2],1.29
CCCTGT,binding signal,[1],1.17
same,binding signal,[2],1.1
ACCTTT,binding signal,[1],1.47
same,binding signal,[2],1.48

# Reformatted as tab-separated lines: part of the list above.
sequence	measurement	setting	value
CCCTGT	binding signal	[1]	1.17
same	binding signal	[2]	1.1
